Reference: article doi:10.1101/2022.05.10.491305
These are yes or no findings as the source states them, for the method shown. Binding seen in cells or lysates may run through a third protein. Some results given as binding are weak or reduced against the parent protein; the word gives no strength. Sequences can lack the tags named with a protein. Blank lines part the entries; values can stand above or below the binder they belong to.

Tests used:
Experiment in all cases: cross-linking
[1] = molecular target: FLAG-tagged wild-type human MX1 (HsMX1), stably expressed in HEK293T cells (human) (UniProt P20591)
[2] = molecular target: FLAG-tagged HsMX1 M527D (monomeric mutant), stably expressed in HEK293T cells (human) (UniProt P20591)
[3] = molecular target: FLAG-tagged HsMX1 T103A (GTPase inactive mutant), stably expressed in HEK293T cells (human) (UniProt P20591)
[4] = molecular target: FLAG-tagged HsMX1 L41A, stably expressed in HEK293T cells (human) (UniProt P20591)

- binding [1]: binds
B1: FLAG-tagged wild-type human MX1 (HsMX1), stably expressed in HEK293T cells (protein, UniProt P20591 1-662)
chain: MVVSEVDIAKADPAAASHPLLLNGDATVAQKNPGSVAENNLCSQYEEKVRPCIDLIDSLRALGVEQDLALPAIAVIGDQSSGKSSVLEALSGVALPRGSGIVTRCPLVLKLKKLVNEDKWRGKVSYQDYEIEISDASEVEKEINKAQNAIAGEGMGISHELITLEISSRDVPDLTLIDLPGITRVAVGNQPADIGYKIKTLIKKYIQRQETISLVVVPSNVDIATTEALSMAQEVDPEGDRTIGILTKPDLVDKGTEDKVVDVVRNLVFHLKKGYMIVKCRGQQEIQDQLSLSEALQREKIFFENHPYFRDLLEEGKATVPCLAEKLTSELITHICKSLPLLENQIKETHQRITEELQKYGVDIPEDENEKMFFLIDKVNAFNQDITALMQGEETVGEEDIRLFTRLRHEFHKWSTIIENNFQEGHKILSRKIQKFENQYRGRELPGFVNYRTFETIVKQQIKALEEPAVDMLHTVTDMVRLAFTDVSIKNFEEFFNLHRTAKSKIEDIRAEQEREGEKLIRLHFQMEQIVYCQDQVYRGALQKVREKELEEEKKKKSWDFGAFQSSSATDSSMEEIFQHLMAYHQEASKRISSHIPLIIQFFMLQTYGQQLQKAMLQLLQDKDTYSWLLKERSDTSDKRKFLKERLARLTQARRRLAQFPG

- binding [2]: no binding
B2: FLAG-tagged HsMX1 M527D (monomeric mutant), stably expressed in HEK293T cells (protein, UniProt P20591 1-662)
chain: MVVSEVDIAKADPAAASHPLLLNGDATVAQKNPGSVAENNLCSQYEEKVRPCIDLIDSLRALGVEQDLALPAIAVIGDQSSGKSSVLEALSGVALPRGSGIVTRCPLVLKLKKLVNEDKWRGKVSYQDYEIEISDASEVEKEINKAQNAIAGEGMGISHELITLEISSRDVPDLTLIDLPGITRVAVGNQPADIGYKIKTLIKKYIQRQETISLVVVPSNVDIATTEALSMAQEVDPEGDRTIGILTKPDLVDKGTEDKVVDVVRNLVFHLKKGYMIVKCRGQQEIQDQLSLSEALQREKIFFENHPYFRDLLEEGKATVPCLAEKLTSELITHICKSLPLLENQIKETHQRITEELQKYGVDIPEDENEKMFFLIDKVNAFNQDITALMQGEETVGEEDIRLFTRLRHEFHKWSTIIENNFQEGHKILSRKIQKFENQYRGRELPGFVNYRTFETIVKQQIKALEEPAVDMLHTVTDMVRLAFTDVSIKNFEEFFNLHRTAKSKIEDIRAEQEREGEKLIRLHFQDEQIVYCQDQVYRGALQKVREKELEEEKKKKSWDFGAFQSSSATDSSMEEIFQHLMAYHQEASKRISSHIPLIIQFFMLQTYGQQLQKAMLQLLQDKDTYSWLLKERSDTSDKRKFLKERLARLTQARRRLAQFPG

- binding [3]: binds
B3: FLAG-tagged HsMX1 T103A (GTPase inactive mutant), stably expressed in HEK293T cells (protein, UniProt P20591 1-662)
chain: MVVSEVDIAKADPAAASHPLLLNGDATVAQKNPGSVAENNLCSQYEEKVRPCIDLIDSLRALGVEQDLALPAIAVIGDQSSGKSSVLEALSGVALPRGSGIVARCPLVLKLKKLVNEDKWRGKVSYQDYEIEISDASEVEKEINKAQNAIAGEGMGISHELITLEISSRDVPDLTLIDLPGITRVAVGNQPADIGYKIKTLIKKYIQRQETISLVVVPSNVDIATTEALSMAQEVDPEGDRTIGILTKPDLVDKGTEDKVVDVVRNLVFHLKKGYMIVKCRGQQEIQDQLSLSEALQREKIFFENHPYFRDLLEEGKATVPCLAEKLTSELITHICKSLPLLENQIKETHQRITEELQKYGVDIPEDENEKMFFLIDKVNAFNQDITALMQGEETVGEEDIRLFTRLRHEFHKWSTIIENNFQEGHKILSRKIQKFENQYRGRELPGFVNYRTFETIVKQQIKALEEPAVDMLHTVTDMVRLAFTDVSIKNFEEFFNLHRTAKSKIEDIRAEQEREGEKLIRLHFQMEQIVYCQDQVYRGALQKVREKELEEEKKKKSWDFGAFQSSSATDSSMEEIFQHLMAYHQEASKRISSHIPLIIQFFMLQTYGQQLQKAMLQLLQDKDTYSWLLKERSDTSDKRKFLKERLARLTQARRRLAQFPG

- binding [4]: binds
B4: FLAG-tagged HsMX1 L41A, stably expressed in HEK293T cells (protein, UniProt P20591 1-662)
chain: MVVSEVDIAKADPAAASHPLLLNGDATVAQKNPGSVAENNACSQYEEKVRPCIDLIDSLRALGVEQDLALPAIAVIGDQSSGKSSVLEALSGVALPRGSGIVTRCPLVLKLKKLVNEDKWRGKVSYQDYEIEISDASEVEKEINKAQNAIAGEGMGISHELITLEISSRDVPDLTLIDLPGITRVAVGNQPADIGYKIKTLIKKYIQRQETISLVVVPSNVDIATTEALSMAQEVDPEGDRTIGILTKPDLVDKGTEDKVVDVVRNLVFHLKKGYMIVKCRGQQEIQDQLSLSEALQREKIFFENHPYFRDLLEEGKATVPCLAEKLTSELITHICKSLPLLENQIKETHQRITEELQKYGVDIPEDENEKMFFLIDKVNAFNQDITALMQGEETVGEEDIRLFTRLRHEFHKWSTIIENNFQEGHKILSRKIQKFENQYRGRELPGFVNYRTFETIVKQQIKALEEPAVDMLHTVTDMVRLAFTDVSIKNFEEFFNLHRTAKSKIEDIRAEQEREGEKLIRLHFQMEQIVYCQDQVYRGALQKVREKELEEEKKKKSWDFGAFQSSSATDSSMEEIFQHLMAYHQEASKRISSHIPLIIQFFMLQTYGQQLQKAMLQLLQDKDTYSWLLKERSDTSDKRKFLKERLARLTQARRRLAQFPG
